Reference: US20050215520A1, “Complex of organic medicines and beta-cyclodextrin derivatives and its preparing process” (priority 2002, published 2005)

Assay: Critical mole ratio or critical mass ratio of medicines and beta-cyclodextrin derivative (Table 1, examples)
Type: physicochemical
Conditions: beta-cyclodextrin derivative (hydroxide propyl beta-cyclodextrin in the examples) to medicine; complex dissolves exactly in water to stable solution
Description: The critical mole ratio or critical mass ratio in the present invention refers to the mole ratio and mass ratio when complex of organic medicine and beta-cyclodextrin derivatives prepared with the method of this invention is dissolved exactly in water of specified amount to form stable aqueous solution.
The critical value of organic medicine and beta-cyclodextrin derivatives in the present invention, may be determined with the undermentioned unit test method.
All kinds of mole ratio and mass ratio of the medicine and beta-cyclodextrin derivative is made into complex with expanding loose body according to the method of the present invention, then the set water is added into the a variety of compounding ratio of complex, and by observing properties of the solution, the compounding ratio of exactly dissolving in water and with stable property, acts as the critical mole ratio or critical mass ratio of the present invention.
The critical mole ratio and critical mass ratio in the present invention may be determined with the undermentioned saturated solution method. […]
From the results, it is seen that the results two measuring method of critical value are consistent generally. The critical mole ratio orcritical mass ratio of all kinds of medicines applied in the present invention, which measured in the experiments, is indicated in the following table 1: […]

## C(=C\c1ccccc1)/CN1CCN(C(c2ccccc2)c2ccccc2)CC1 [cinnarizine]
  Critical value mole ratio: 3
